Experimental data taken from patent publication US20160237157A1.
These are yes or no findings as the source states them, for the method shown. Some entries that bind do so weakly or less than the wild type.

Chains of the proteins cited; added tags and fusions are not shown. Lines headed by an entry give the natural chain unless they say otherwise; changes in a name come on top.
UniProt P01027: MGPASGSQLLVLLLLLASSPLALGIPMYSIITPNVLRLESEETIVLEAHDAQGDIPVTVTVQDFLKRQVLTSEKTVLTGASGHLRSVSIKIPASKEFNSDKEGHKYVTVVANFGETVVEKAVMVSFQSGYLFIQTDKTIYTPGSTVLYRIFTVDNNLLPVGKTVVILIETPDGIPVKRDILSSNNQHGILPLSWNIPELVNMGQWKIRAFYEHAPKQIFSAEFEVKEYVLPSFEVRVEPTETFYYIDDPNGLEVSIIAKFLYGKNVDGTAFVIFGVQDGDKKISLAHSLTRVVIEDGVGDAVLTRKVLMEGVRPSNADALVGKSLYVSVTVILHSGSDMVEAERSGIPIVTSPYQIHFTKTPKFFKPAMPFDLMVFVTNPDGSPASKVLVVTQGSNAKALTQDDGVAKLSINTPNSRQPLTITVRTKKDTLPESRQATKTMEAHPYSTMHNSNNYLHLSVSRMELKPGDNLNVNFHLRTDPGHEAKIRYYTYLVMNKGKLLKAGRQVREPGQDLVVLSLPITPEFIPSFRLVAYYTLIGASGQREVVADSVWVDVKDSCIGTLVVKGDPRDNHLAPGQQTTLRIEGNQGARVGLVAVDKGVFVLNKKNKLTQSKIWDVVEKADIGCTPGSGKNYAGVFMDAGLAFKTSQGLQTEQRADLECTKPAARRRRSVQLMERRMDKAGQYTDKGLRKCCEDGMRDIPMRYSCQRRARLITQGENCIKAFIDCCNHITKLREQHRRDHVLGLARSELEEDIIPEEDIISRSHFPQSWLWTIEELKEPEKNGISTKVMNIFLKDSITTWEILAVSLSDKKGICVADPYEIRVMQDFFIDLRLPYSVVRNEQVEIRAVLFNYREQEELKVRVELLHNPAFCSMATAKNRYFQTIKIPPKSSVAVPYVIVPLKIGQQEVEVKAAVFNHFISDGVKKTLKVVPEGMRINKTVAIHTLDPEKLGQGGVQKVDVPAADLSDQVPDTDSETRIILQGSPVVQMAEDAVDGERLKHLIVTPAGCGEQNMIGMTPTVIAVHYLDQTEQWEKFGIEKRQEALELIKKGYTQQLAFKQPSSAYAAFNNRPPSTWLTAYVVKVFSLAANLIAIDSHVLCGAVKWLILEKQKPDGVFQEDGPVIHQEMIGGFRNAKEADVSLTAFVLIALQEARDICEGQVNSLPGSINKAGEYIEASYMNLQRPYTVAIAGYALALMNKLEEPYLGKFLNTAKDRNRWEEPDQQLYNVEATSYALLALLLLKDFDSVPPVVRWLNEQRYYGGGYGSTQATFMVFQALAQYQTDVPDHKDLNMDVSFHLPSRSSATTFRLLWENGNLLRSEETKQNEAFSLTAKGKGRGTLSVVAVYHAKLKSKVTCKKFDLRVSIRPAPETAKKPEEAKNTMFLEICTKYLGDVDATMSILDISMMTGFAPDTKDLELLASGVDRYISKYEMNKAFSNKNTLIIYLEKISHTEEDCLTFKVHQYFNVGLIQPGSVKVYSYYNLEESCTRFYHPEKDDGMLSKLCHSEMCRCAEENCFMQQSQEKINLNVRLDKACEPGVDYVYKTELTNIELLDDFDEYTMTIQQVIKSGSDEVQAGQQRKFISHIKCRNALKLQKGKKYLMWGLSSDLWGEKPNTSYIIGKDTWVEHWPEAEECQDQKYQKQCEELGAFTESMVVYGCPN

Experiments:
[1] = biological target: T1, human FGFR4 (soluble, Part B: SPR and FGFR4 ELISA) (human) (UniProt P22455); test: FGFR4 ELISA, FGFR4 immobilized
T1 sequence: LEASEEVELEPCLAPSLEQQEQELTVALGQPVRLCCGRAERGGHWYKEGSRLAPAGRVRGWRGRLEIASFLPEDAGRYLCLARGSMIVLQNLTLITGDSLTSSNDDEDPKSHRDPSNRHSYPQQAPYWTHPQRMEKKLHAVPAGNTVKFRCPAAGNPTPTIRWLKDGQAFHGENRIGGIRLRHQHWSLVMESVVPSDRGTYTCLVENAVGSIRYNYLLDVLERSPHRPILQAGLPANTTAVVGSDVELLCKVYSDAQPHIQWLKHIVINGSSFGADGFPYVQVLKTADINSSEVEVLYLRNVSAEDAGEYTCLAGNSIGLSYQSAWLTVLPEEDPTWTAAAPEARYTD

[2] = biological target: mouse complement C3 (C3d fragment, ca. 37 kDa) (mouse) (UniProt P01027); test: Protein-G pull-down from serum of dosed mice (2 h post dose), SDS-PAGE
[3] = biological target: mouse complement C3 (C3d fragment, ca. 37 kDa) (mouse) (UniProt P01027); test: immunoprecipitation from mouse plasma, SDS-PAGE
[4] = biological target: mouse complement C3 (C3d fragment, ca. 37 kDa) (mouse) (UniProt P01027); test: immunoprecipitation from NCR nude mouse plasma, SDS-PAGE
[5] = biological target: mouse complement C3 (C3d fragment, ca. 37 kDa) (mouse) (UniProt P01027); test: immunoprecipitation from mouse plasma, Protein-G beads, SDS-PAGE, MS/MS identification as mouse C3
[6] = biological target: T1, human FGFR4 (soluble, Part B: SPR and FGFR4 ELISA) (human); test: surface plasmon resonance
[7] = biological target: mouse complement C3 (C3d fragment, ca. 37 kDa) (mouse) (UniProt P01027); test: immunoprecipitation from mouse plasma

Measured: binding

B1: hLD1.vB (antibody, V domains shown)
VH: EVQLVESGGGLVQPGGSLRLSCAASGYTFTNHWMNWVRQAPGKGLEWVGMIHPSDSETTLDQKFKDRFTISADTSKNTAYLQMNSLRAEDTAVYYCTRGDISLFDYWGQGTLVTVSS
VL: DIQMTQSPSSLSASVGDRVTITCRTSQDISNFLNWYQQKPGKAFKILISYTSRLHSGVPSRFSGSGSGTDFTLTISSLQPEDFATYYCQQGNALPYTFGQGTKVEIK
binds: all assays above

B2: hLD1.v22 (antibody, V domains shown)
VH: EVQLVESGGGLVQPGGSLRLSCAASGYTFTNHWMNWVRQAPGKGLEWVGMILPVDSETTLEQKFKDRFTISADTSKNTAYLQMNSLRAEDTAVYYCTRGDISLFDYWGQGTLVTVSS
VL: DIQMTQSPSSLSASVGDRVTITCRTSQDISNFLNWYQQKPGKAFKILISYTSRLHSGVPSRFSGSGSGTDFTLTISSLQPEDFATYYCQQGNALPYTFGQGTKVEIKR
binds: [6]
